Assay results as given in PubChem BioAssay AID186 (DTP/NCI, 2004).
The mice bore no tumour; each value counts animals alive of those treated. Survivors were counted at the toxicity check, usually on the fifth day, unless a day is given; later deaths do not show. Schedules are NCI's codes, read here as Q, the interval in days (D) or hours (H), X, the number of doses. Some doses were run more than once; their values stand side by side, smallest first.

Test system: B6D2F1 mice, nontumored toxicity test, survival
Assay: NCI In Vivo Anticancer Drug Screen. Data for tumor model Nontumored Animals (Toxicity Test) in B6D2F1 (BDF1) mice

With `N=c1ccn2c(n1)OC1C(O)C(CO)OC12` (configuration not stated) the survivor count (dose: 400.0 mg/kg/injection, schedule: Q01DX001 (ip), vehicle: water) was 6 of 6, the survivor count (dose: 800.0 mg/kg/injection, schedule: Q01DX001 (ip), vehicle: water) was 6 of 6 and the survivor count (dose: 1600.0 mg/kg/injection, schedule: Q01DX001 (ip), vehicle: water) was 6 of 6. For the same compound, the survivor count (dose: 3200.0 mg/kg/injection, schedule: Q01DX001 (ip), vehicle: water) was 2 of 6.

For `Cc1c(N)nc([C@H](CC(N)=O)NC[C@H](N)C(N)=O)nc1C(=O)N[C@H](C(=O)N[C@H](C)[C@@H](O)[C@H](C)C(=O)N[C@H](C(=O)NCCc1nc(-c2nc(C(=O)NCCC[S+](C)C)cs2)cs1)[C@@H](C)O)C(OC1OC(CO)C(O)C(O)C1OC1OC(CO)C(O)C(OC(N)=O)C1O)c1cnc[nH]1` (some centres not stated), the survivor count (dose: 0.03 mg/kg/injection, schedule: Q03HX040 (ip), vehicle: saline) was 10 of 10, the survivor count (dose: 0.06 mg/kg/injection, schedule: Q03HX040 (ip), vehicle: saline) was 10 of 10 and the survivor count (dose: 0.12 mg/kg/injection, schedule: Q03HX040 (ip), vehicle: saline) was 9 of 10. For the same compound, the survivor count (dose: 0.25 mg/kg/injection, schedule: Q03HX040 (ip), vehicle: saline) was 9 of 10, the survivor count (dose: 0.5 mg/kg/injection, schedule: Q03HX040 (ip), vehicle: saline) was 9 of 10 and the survivor count (dose: 1.0 mg/kg/injection, schedule: Q01DX009 (ip), vehicle: clinical formulation) was 4 of 4. For the same compound, the survivor count (dose: 1.0 mg/kg/injection, schedule: Q03HX040 (ip), vehicle: saline) was 8 of 10, the survivor count (dose: 2.0 mg/kg/injection, schedule: Q01DX009 (ip), vehicle: clinical formulation) was 4 of 4 and the survivor count (dose: 2.0 mg/kg/injection, schedule: Q01DX009 (ip), vehicle: water) was 4 of 4. For the same compound, the survivor count (dose: 2.0 mg/kg/injection, schedule: Q03HX008 (ip), vehicle: saline) was 8 of 8, the survivor count (dose: 2.0 mg/kg/injection, schedule: Q03HX016 (ip), vehicle: saline) was 8 of 8 and the survivor count (dose: 2.0 mg/kg/injection, schedule: Q03HX024 (ip), vehicle: saline) was 8 of 8. For the same compound, the survivor count (dose: 2.0 mg/kg/injection, schedule: Q03HX040 (ip), vehicle: saline) was 9 of 10, the survivor count (dose: 4.0 mg/kg/injection, schedule: Q01DX009 (ip), vehicle: clinical formulation) was 4 of 4 and the survivor count (dose: 4.0 mg/kg/injection, schedule: Q01DX009 (ip), vehicle: water) was 4 of 4. The survivor count (dose: 4.0 mg/kg/injection, schedule: Q03HX008 (ip), vehicle: saline) was 8 of 8, the survivor count (dose: 4.0 mg/kg/injection, schedule: Q03HX016 (ip), vehicle: saline) was 8 of 8 and the survivor count (dose: 4.0 mg/kg/injection, schedule: Q03HX024 (ip), vehicle: saline) was 7 of 8 and 8 of 8. The survivor count (dose: 4.0 mg/kg/injection, schedule: Q03HX040 (ip), vehicle: saline) was 5 of 10, the survivor count (dose: 8.0 mg/kg/injection, schedule: Q01DX005 (ip), vehicle: saline) was 6 of 6 and the survivor count (dose: 8.0 mg/kg/injection, schedule: Q01DX009 (ip), vehicle: clinical formulation) was 4 of 4. The survivor count (dose: 8.0 mg/kg/injection, schedule: Q01DX009 (ip), vehicle: saline) was 8 of 8, the survivor count (dose: 8.0 mg/kg/injection, schedule: Q01DX009 (ip), vehicle: water) was 4 of 4 and the survivor count (dose: 8.0 mg/kg/injection, schedule: Q03HX008 (ip), vehicle: saline) was 8 of 8. For the same compound, the survivor count (dose: 8.0 mg/kg/injection, schedule: Q03HX016 (ip), vehicle: saline) was 8 of 8, the survivor count (dose: 8.0 mg/kg/injection, schedule: Q03HX024 (ip), vehicle: saline) was 8 of 8 and the survivor count (dose: 16.0 mg/kg/injection, schedule: Q01DX001 (ip), vehicle: saline) was 8 of 8. The survivor count (dose: 16.0 mg/kg/injection, schedule: Q01DX005 (ip), vehicle: saline) was 6 of 6, the survivor count (dose: 16.0 mg/kg/injection, schedule: Q01DX009 (ip), vehicle: clinical formulation) was 4 of 4 and the survivor count (dose: 16.0 mg/kg/injection, schedule: Q01DX009 (ip), vehicle: saline) was 8 of 8. The survivor count (dose: 16.0 mg/kg/injection, schedule: Q01DX009 (ip), vehicle: water) was 4 of 4, the survivor count (dose: 16.0 mg/kg/injection, schedule: Q03HX008 (ip), vehicle: saline) was 6 of 8 and 8 of 8 and the survivor count (dose: 16.0 mg/kg/injection, schedule: Q03HX016 (ip), vehicle: saline) was 7 of 8 and 8 of 8. For the same compound, the survivor count (dose: 16.0 mg/kg/injection, schedule: Q03HX024 (ip), vehicle: saline) was 7 of 8 and 8 of 8, the survivor count (dose: 32.0 mg/kg/injection, schedule: Q01DX001 (ip), vehicle: saline) was 8 of 8 and the survivor count (dose: 32.0 mg/kg/injection, schedule: Q01DX005 (ip), vehicle: saline) was 6 of 6. For the same compound, the survivor count (dose: 32.0 mg/kg/injection, schedule: Q01DX009 (ip), vehicle: saline) was 7 of 8 and 8 of 8, the survivor count (dose: 32.0 mg/kg/injection, schedule: Q01DX009 (ip), vehicle: water) was 4 of 4 and the survivor count (dose: 32.0 mg/kg/injection, schedule: Q04DX003 (ip), vehicle: saline) was 8 of 8. For the same compound, the survivor count (dose: 32.0 mg/kg/injection, schedule: Q08DX002 (ip), vehicle: saline) was 8 of 8, the survivor count (dose: 64.0 mg/kg/injection, schedule: Q01DX001 (ip), vehicle: saline) was 8 of 8 and the survivor count (dose: 64.0 mg/kg/injection, schedule: Q01DX005 (ip), vehicle: saline) was 6 of 6. For the same compound, the survivor count (dose: 64.0 mg/kg/injection, schedule: Q01DX009 (ip), vehicle: saline) was 8 of 8, the survivor count (dose: 64.0 mg/kg/injection, schedule: Q04DX003 (ip), vehicle: saline) was 8 of 8 and the survivor count (dose: 64.0 mg/kg/injection, schedule: Q08DX002 (ip), vehicle: saline) was 8 of 8. The survivor count (dose: 128.0 mg/kg/injection, schedule: Q01DX001 (ip), vehicle: saline) was 7 of 8 and 8 of 8, the survivor count (dose: 128.0 mg/kg/injection, schedule: Q04DX003 (ip), vehicle: saline) was 8 of 8 and the survivor count (dose: 128.0 mg/kg/injection, schedule: Q08DX002 (ip), vehicle: saline) was 8 of 8.
